Consider one molecule from publication PMC10802709.

The chains behind the UniProt entries cited, without tags or fusion partners. Where a name states a change or a piece, a line headed by the entry shows the natural chain unless it says otherwise.
UniProt P61586: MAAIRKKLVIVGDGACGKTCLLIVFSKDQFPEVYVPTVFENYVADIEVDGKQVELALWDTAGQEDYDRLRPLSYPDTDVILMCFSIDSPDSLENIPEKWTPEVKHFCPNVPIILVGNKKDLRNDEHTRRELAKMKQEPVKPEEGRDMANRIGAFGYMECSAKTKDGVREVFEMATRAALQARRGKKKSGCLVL

No constants are given. Whether binding was seen depends on the method and setting. Binding seen in cells or lysates may run through a third protein. Some results given as binding are weak or reduced against the parent protein; the word gives no strength.

The experiment concerns the target GFP-RhoA Q63L (constitutively active form of RhoA) (UniProt P61586). The experiment is described as follows: co-IP; GFP-trap magnetic agarose beads in nuclei-free cytoplasmic extract (digitonin permeabilization, 2 mM MgCl2, 5 mM GTP) of HT1080 cells stably expressing GFP-RhoA Q63L, serum-starved then released 4 h into S phase; 1.5 h at 4°C; washes with TTBS, 0.05% NP40; blot with anti-anillin; binding control magnetic agarose as control.

B1: anillin (protein, UniProt Q9NQW6 1-1124)
chain: MDPFTEKLLERTRARRENLQRKMAERPTAAPRSMTHAKRARQPLSEASNQQPLSGGEEKSCTKPSPSKKRCSDNTEVEVSNLENKQPVESTSAKSCSPSPVSPQVQPQAADTISDSVAVPASLLGMRRGLNSRLEATAASSVKTRMQKLAEQRRRWDNDDMTDDIPESSLFSPMPSEEKAASPPRPLLSNASATPVGRRGRLANLAATICSWEDDVNHSFAKQNSVQEQPGTACLSKFSSASGASARINSSSVKQEATFCSQRDGDASLNKALSSSADDASLVNASISSSVKATSPVKSTTSITDAKSCEGQNPELLPKTPISPLKTGVSKPIVKSTLSQTVPSKGELSREICLQSQSKDKSTTPGGTGIKPFLERFGERCQEHSKESPARSTPHRTPIITPNTKAIQERLFKQDTSSSTTHLAQQLKQERQKELACLRGRFDKGNIWSAEKGGNSKSKQLETKQETHCQSTPLKKHQGVSKTQSLPVTEKVTENQIPAKNSSTEPKGFTECEMTKSSPLKITLFLEEDKSLKVTSDPKVEQKIEVIREIEMSVDDDDINSSKVINDLFSDVLEEGELDMEKSQEEMDQALAESSEEQEDALNISSMSLLAPLAQTVGVVSPESLVSTPRLELKDTSRSDESPKPGKFQRTRVPRAESGDSLGSEDRDLLYSIDAYRSQRFKETERPSIKQVIVRKEDVTSKLDEKNNAFPCQVNIKQKMQELNNEINMQQTVIYQASQALNCCVDEEHGKGSLEEAEAERLLLIATGKRTLLIDELNKLKNEGPQRKNKASPQSEFMPSKGSVTLSEIRLPLKADFVCSTVQKPDAANYYYLIILKAGAENMVATPLASTSNSLNGDALTFTTTFTLQDVSNDFEINIEVYSLVQKKDPSGLDKKKKTSKSKAITPKRLLTSITTKSNIHSSVMASPGGLSAVRTSNFALVGSYTLSLSSVGNTKFVLDKVPFLSSLEGHIYLKIKCQVNSSVEERGFLTIFEDVSGFGAWHRRWCVLSGNCISYWTYPDDEKRKNPIGRINLANCTSRQIEPANREFCARRNTFELITVRPQREDDRETLVSQCRDTLCVTKNWLSADTKEERDLWMQKLNQVLVDIRLWQPDACYKPIGKP
For the molecule B1, the binding result was “binds”.
